Data on 1 compound can be found in patent US20230143604A1, “QW DOSING OF GIP RECEPTOR AGONIST PEPTIDE COMPOUNDS AND USES THEREOF” (TAKEDA PHARMACEUTICAL COMPANY LIMITED, priority 2020, published 2023).

This series can be described thus: Solubility in phosphate buffer pH 7.4. To be noted: pH 7.4, aqueous buffer, pH 7.4 Phosphate Buffer - Solubility, 200 mM Phosphate buffer pH 7.4. How it is done:
Solubility of the GIPR peptides may be determined by dissolution in a phosphate buffer followed by quantitation using liquid chromatography, for example, High Performance Liquid Chromatogry (HPLC). An illustrative method is provided. For determination of the solubility of the GIPr agonist peptides, 3 mg of peptides are weighted out in a small glass vial. 100 μL of 200 mM Phosphate buffer pH 7.4 are added and the vial is sonicated/votexed as necessary for a maximum of 1 min. […] If insoluble material is observed in the tube the addition of 100 μL of buffer and mixing is repeated until complete dissolution.
3 mg of peptides are weighted out in a small glass vial. 100 uL of 200 mM Phosphate buffer pH 7.4 are added and the vial is sonicated/votexed as necessary for a maximum of 1 min. […] If insoluble material is observed in the tube the addition of 100 uL of buffer and mixing is repeated until complete dissolution.

In general, solubility refers to the dissolved amount per volume that the medium holds. A high value points to much dissolved substance. In turn, `CC[C@H](C)[C@H](NC(=O)[C@H](CO)NC(=O)[C@H](Cc1ccc(O)cc1)NC(=O)[C@H](CC(=O)O)NC(=O)[C@H](CO)NC(=O)[C@@H](NC(=O)[C@H](Cc1ccccc1)NC(=O)[C@@H](NC(=O)CNC(=O)[C@H](CCC(=O)O)NC(=O)C(C)(C)NC(=O)[C@H](Cc1ccc(O)cc1)NC)[C@@H](C)O)[C@@H](C)CC)C(=O)N[C@@H](C)C(=O)N[C@@H](CC(C)C)C(=O)N[C@@H](CC(=O)O)C(=O)N[C@@H](CCCNC(=N)N)C(=O)NC(C)(C)C(=O)N[C@@H](C)C(=O)N[C@@H](CCC(N)=O)C(=O)NC(C)(C)C(=O)N[C@@H](CCCCNC(=O)COCCOCCNC(=O)COCCOCCNC(=O)CC[C@H](NC(=O)CC[C@H](NC(=O)CCCCCCCCCCCCCCCCC(=O)O)C(=O)O)C(=O)O)C(=O)N[C@@H](Cc1ccccc1)C(=O)N[C@H](C(=O)N[C@@H](CC(N)=O)C(=O)N[C@@H](Cc1c[nH]c2ccccc12)C(=O)N[C@@H](CC(C)C)C(=O)N[C@@H](CC(C)C)C(=O)N[C@@H](C)C(=O)N[C@@H](CCC(N)=O)C(=O)N[C@@H](CCCCN)C(=O)NCC(=O)O)C(C)C` [Compound 41, Me-Y-Aib-E-G-T-F-I-S-D-Y-S-I-A-L-D-R-Aib-A-Q-Aib-Km-F-V-N-W-L-L-A-Q-K-G-OH] displayed a solubility of no less than 30 mg/mL.
